Experimental data taken from patent publication US20200246284A1 (Academia Sinica, priority 2015, published 2020).

Test system: MCL line JEKO-1
Assay: Therapeutic window vs normal tissues (Table 27)

N.N.[Cl][Pt][Cl] [Cisplatin]
therapeutic window (TW) (endothelium vs JEKO-1): 50 fold
therapeutic window (TW) (epithelium and mesenchyme vs JEKO-1): 1.6-8.0
